Data published in paper PMC5900714.

The chains behind the UniProt entries cited, without tags or fusion partners. Where a name states a change or a piece, a line headed by the entry shows the natural chain unless it says otherwise.
UniProt Q8C3P7: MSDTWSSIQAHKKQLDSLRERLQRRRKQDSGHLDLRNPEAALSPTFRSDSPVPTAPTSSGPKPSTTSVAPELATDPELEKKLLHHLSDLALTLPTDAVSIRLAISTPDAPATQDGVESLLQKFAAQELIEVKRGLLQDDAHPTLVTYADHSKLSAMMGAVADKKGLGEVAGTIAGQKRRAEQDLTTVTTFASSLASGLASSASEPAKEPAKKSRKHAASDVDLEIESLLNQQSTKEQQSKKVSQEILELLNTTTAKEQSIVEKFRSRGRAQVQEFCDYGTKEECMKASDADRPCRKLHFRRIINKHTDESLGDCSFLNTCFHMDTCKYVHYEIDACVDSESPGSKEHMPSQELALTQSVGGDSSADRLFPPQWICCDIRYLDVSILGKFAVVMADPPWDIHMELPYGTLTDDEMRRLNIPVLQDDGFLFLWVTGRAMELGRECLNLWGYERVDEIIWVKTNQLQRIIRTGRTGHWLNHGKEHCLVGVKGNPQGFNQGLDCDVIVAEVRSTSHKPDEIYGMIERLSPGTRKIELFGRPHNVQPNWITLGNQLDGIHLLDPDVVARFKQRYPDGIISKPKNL
UniProt A2AIV2: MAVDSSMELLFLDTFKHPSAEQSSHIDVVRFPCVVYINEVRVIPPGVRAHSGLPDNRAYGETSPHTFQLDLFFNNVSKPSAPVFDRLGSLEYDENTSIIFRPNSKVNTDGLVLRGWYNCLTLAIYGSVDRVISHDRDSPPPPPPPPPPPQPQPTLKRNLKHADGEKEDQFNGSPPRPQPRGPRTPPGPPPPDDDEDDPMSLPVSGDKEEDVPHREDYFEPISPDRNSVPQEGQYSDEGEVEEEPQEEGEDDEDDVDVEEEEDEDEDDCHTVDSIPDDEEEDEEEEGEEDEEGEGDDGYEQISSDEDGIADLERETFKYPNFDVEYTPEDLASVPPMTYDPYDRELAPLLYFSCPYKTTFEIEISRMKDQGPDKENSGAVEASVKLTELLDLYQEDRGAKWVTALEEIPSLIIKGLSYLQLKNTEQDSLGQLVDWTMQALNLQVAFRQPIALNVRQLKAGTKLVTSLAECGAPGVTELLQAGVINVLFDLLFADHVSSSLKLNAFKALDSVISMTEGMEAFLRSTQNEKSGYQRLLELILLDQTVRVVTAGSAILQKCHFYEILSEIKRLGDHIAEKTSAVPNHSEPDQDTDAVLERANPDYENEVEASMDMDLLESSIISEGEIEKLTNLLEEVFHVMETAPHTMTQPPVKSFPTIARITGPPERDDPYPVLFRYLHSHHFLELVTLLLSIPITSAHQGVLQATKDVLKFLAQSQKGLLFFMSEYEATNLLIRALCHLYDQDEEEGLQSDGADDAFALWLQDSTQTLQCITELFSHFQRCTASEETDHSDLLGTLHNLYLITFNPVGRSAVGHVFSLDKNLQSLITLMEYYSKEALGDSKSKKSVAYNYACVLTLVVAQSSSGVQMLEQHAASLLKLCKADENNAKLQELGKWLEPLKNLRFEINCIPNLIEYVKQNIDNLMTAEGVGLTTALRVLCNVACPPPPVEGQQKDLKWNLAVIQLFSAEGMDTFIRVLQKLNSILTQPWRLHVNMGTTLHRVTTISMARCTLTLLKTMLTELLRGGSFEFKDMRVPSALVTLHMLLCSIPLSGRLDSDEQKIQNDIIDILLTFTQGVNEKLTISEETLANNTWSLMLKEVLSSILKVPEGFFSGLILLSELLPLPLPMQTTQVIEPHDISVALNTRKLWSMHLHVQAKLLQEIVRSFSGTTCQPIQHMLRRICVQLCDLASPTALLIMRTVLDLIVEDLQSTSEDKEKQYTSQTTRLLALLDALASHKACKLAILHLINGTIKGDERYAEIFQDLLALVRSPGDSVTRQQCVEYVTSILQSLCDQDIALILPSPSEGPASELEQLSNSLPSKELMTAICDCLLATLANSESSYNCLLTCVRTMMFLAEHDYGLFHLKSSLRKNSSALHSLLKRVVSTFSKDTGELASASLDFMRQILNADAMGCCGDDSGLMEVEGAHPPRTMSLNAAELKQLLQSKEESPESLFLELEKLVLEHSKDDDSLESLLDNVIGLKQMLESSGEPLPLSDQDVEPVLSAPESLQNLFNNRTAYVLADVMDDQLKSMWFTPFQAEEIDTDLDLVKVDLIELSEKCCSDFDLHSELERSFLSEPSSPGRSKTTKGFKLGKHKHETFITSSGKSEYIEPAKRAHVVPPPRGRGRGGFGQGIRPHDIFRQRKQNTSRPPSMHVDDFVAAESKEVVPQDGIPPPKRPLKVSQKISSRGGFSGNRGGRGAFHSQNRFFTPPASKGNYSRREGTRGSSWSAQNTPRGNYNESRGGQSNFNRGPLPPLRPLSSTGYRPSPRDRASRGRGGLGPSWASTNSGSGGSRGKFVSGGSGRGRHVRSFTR
UniProt E9Q784: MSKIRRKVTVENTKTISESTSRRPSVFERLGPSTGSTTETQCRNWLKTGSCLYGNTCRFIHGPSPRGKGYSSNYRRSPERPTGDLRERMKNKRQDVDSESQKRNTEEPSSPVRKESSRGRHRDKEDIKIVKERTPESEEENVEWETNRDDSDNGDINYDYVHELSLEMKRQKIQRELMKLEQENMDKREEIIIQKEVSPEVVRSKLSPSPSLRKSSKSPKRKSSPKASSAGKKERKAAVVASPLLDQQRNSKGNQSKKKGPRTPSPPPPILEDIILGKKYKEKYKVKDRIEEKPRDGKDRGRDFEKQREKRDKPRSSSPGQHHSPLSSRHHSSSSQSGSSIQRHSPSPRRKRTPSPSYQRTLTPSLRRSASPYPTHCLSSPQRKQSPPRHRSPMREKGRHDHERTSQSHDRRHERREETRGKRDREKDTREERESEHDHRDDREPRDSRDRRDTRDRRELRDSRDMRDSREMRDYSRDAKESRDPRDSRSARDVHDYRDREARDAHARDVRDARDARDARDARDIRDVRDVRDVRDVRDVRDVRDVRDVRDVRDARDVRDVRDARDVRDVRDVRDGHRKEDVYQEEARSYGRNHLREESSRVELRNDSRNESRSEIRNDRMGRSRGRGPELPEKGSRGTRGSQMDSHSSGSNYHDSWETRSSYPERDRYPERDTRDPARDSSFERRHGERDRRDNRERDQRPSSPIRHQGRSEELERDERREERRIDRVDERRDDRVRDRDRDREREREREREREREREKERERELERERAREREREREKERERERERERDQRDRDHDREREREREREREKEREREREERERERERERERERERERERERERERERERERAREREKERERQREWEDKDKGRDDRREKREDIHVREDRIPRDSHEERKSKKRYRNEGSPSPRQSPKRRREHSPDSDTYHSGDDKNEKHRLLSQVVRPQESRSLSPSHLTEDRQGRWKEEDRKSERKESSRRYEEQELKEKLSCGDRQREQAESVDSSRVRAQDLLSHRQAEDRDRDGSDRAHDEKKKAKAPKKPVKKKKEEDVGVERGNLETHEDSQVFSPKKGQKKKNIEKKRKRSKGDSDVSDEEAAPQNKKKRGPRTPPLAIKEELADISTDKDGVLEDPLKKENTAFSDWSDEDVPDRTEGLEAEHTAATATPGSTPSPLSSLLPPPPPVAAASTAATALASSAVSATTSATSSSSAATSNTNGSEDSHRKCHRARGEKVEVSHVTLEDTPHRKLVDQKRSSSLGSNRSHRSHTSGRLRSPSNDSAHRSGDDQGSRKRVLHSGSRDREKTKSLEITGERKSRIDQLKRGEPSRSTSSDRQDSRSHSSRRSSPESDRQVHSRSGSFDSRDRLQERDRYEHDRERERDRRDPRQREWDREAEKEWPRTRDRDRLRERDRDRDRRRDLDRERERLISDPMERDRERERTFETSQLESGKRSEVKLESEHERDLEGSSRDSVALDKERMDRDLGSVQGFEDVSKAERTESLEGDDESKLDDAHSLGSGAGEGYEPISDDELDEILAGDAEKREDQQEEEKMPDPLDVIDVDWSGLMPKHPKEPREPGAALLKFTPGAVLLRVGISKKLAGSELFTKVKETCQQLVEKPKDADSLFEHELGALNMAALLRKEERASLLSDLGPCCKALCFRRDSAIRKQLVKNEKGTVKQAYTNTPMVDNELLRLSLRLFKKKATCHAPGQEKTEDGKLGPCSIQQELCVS
UniProt Q9W1R5: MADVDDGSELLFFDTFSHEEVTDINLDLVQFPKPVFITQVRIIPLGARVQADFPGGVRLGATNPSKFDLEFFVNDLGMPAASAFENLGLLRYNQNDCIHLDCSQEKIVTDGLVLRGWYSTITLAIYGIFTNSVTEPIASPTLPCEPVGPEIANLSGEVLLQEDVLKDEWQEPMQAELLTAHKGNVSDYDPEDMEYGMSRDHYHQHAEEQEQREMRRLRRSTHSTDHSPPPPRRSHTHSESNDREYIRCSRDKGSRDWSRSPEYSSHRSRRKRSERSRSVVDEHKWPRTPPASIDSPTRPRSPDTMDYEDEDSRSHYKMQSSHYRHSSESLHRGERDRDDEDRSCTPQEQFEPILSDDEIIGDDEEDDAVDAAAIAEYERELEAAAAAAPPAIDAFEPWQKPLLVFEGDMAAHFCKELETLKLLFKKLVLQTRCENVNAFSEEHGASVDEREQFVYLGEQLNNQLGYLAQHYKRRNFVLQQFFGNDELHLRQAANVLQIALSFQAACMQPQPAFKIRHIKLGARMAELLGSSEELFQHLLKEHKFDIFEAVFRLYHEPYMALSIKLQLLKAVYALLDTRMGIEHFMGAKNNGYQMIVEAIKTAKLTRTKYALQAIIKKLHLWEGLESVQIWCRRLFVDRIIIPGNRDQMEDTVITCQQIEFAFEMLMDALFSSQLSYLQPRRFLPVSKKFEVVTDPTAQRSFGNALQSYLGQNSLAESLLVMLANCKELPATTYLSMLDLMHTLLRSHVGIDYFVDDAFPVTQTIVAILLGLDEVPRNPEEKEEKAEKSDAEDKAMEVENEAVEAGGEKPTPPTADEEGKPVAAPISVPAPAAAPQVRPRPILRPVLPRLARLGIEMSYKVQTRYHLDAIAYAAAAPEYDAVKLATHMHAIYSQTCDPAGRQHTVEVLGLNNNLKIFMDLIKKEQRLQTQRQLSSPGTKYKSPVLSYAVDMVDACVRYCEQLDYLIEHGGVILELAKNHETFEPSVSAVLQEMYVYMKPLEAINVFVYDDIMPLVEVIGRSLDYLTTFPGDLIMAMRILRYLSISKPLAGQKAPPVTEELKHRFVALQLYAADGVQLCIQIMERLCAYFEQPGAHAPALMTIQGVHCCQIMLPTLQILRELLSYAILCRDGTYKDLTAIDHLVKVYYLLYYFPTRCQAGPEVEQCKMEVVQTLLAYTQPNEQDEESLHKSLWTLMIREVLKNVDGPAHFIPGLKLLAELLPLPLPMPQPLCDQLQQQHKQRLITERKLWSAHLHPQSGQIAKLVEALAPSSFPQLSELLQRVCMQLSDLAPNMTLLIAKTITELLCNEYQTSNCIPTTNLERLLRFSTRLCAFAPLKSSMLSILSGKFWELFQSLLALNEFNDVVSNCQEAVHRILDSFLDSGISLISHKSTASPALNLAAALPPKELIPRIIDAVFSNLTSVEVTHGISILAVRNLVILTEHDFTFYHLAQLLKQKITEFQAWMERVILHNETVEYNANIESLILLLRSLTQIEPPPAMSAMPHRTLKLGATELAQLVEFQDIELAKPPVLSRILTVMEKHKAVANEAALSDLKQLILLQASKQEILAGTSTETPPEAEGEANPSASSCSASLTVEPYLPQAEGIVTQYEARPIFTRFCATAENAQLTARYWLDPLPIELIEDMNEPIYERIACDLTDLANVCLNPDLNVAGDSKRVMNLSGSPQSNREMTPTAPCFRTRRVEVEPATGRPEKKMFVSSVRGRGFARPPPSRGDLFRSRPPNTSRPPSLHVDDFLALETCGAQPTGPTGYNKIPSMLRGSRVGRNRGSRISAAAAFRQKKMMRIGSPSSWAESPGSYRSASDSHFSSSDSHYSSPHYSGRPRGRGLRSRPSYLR

T1: Rbm15, endogenously Flag-Avi-tagged (mouse (endogenous in mESCs)) (UniProt Q0VBL3)
T1 sequence: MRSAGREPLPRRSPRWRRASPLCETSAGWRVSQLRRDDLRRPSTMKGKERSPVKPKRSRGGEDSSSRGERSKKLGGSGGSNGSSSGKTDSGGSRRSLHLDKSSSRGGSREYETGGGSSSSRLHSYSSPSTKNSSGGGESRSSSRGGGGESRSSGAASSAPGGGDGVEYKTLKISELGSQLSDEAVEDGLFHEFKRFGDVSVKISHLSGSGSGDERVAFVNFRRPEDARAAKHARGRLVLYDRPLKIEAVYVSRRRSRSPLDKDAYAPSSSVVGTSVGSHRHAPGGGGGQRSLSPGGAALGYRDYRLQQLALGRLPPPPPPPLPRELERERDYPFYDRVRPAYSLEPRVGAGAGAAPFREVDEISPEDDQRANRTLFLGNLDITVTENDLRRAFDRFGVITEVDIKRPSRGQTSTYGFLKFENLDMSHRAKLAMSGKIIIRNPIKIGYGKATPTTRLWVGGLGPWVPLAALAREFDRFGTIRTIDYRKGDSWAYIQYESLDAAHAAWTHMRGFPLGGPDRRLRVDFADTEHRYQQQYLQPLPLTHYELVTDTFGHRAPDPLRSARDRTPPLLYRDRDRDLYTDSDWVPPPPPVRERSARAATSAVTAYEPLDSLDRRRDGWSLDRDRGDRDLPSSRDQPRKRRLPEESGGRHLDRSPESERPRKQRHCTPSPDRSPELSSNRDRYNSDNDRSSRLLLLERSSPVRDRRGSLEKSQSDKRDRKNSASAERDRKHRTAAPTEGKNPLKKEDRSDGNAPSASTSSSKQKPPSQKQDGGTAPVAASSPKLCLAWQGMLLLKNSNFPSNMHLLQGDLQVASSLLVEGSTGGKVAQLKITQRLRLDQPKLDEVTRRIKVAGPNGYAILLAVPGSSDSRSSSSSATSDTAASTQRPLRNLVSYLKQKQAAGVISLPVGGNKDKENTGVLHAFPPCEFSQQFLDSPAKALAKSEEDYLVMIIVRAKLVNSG

T2: Myc-tagged Nito (Spenito) (D. melanogaster) (UniProt Q7KMJ6)
T2 sequence: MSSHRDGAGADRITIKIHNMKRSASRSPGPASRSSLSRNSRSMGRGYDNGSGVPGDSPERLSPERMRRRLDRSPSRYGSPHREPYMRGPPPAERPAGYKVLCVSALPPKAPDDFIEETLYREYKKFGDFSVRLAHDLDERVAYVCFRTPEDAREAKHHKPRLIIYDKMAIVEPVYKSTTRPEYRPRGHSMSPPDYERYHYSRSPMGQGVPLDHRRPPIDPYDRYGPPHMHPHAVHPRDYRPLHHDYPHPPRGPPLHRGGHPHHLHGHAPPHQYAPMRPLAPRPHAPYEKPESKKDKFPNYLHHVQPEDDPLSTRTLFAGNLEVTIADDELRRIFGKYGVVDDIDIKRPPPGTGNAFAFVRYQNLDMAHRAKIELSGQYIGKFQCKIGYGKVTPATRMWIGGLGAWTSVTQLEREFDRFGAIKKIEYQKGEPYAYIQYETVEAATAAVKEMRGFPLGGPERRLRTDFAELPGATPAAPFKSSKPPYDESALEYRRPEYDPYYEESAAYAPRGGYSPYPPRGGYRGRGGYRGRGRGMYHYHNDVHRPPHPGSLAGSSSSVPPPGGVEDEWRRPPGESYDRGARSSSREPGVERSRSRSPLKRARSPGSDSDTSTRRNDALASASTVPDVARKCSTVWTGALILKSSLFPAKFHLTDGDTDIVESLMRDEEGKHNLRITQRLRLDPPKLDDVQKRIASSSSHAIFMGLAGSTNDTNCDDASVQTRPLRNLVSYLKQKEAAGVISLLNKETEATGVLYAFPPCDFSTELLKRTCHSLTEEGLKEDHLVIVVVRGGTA

B1: Hakai (Drosophila), endogenous in S2R+ cells (protein, UniProt M9PBE2 1-473)
chain: MDTEEVKRGRGRGRGTRARGRGRGRGRGRGKKIDDSSIADAAALAASSCAALEDSPGRLDASEDSVMQELDKDGELETPGALEEPLPHGALGAVAASGNMTPATQQPQVLQQVPPPVMSQTTISLSLARAVDMEADISQLEAPTFTTLSRGPPEPMLRLKWNHKVSLIGEKVLNPMIHCCDQCDKPILVYGRMIPCKHVFCLKCARAEPIKSCPRCTDKVLRVEQSGLGTVFMCTHGGSRYGSSGCRRTYLSQRDLQAHINHRHVAPQPPPLQPQPQLSAMAEQPKMTDLGGVGLGLELHKQRKLSESSVPISVSASIASRPVLSRLPLTGGVGNIGSIGSIPPPGSAAAAQNAIHGGHSTLTLANLTRINNANAQECHQGKASLHHTLKKGTPHQSESVADASYYSSVLASFGSAAGNPGSGPPGGGATAAAQPANPSGSHSAVGPGALIGGSTDAPTGGSSGNWQQSQYYR
B2: Flacc [Fl(2)d-associated complex component], endogenous in S2R+ cells (protein, UniProt Q9VWN4 1-1150)
chain: MEKKAKESLRRYKKAARHSATHSSSSDSTSDSDSGSSSYSSTDSEQGVGGVGVGVGVPGGAGGPGGSGSVHGHPHTHGHGHHPRSAERHHRKKKSSRRGGSSSGDEPSSSRRKRDKRDHVQKKLVAKRNHIKRKLKEARLKKRAAAALSGHVHRSLSPTTRAKLKKLAERKRLRAASKEQRERDKLRVVQRDRERDHHRLGSSRSPPSSSTTTTTKIRIHQDIVGKRQKSPGLGSGLGGGSSSSSSRMHHQLMSREKIIIQTRARGRTPSLERERERERERERERERERHDLSLRERDRRDRERERAEREAARDKERAEALARCQERQRERERLAREKLRRQEEEEGGKRGGPGRDLDLPPYGSRERSLDTVERERERERSGRHVRDKRELDPYEREQEYLEERHGHGLIDEMRRYRRRDLSPMPEHYAPRLRDPRELYSEEERERAYKRAYLDARYSSREREAWLEARELRERELQGREYRDLETEDTLYPDERERLIRDRERDRERERDRERERNIGPRGDFRPEWEREWEEEGAGGGPGGPSGTPGRPGGFVGGPKRGKPPAHAGGGPPSQQQHHSASEPDWDADERERERERERDRERERDREDRPDTGGGGAGGDRPSIKNEPAWLEHDQREKPRGWQQQSSNSGGDWRDNDDAPPAPSHPHPASPHHHVHPRGERGSGRGFRRGGHGHGDHGERPGYRSHPPPLMTLPVQPPGGYSRGFPHKRLPYGSGRDGAALGARDGGLPGSSTFLKKHTHAPLVSPTQTPLLNPLLNAAKPNAAAQASAVAAATTAVAAAKAAAQSAANATTNPGILAQVSKLNTVCIKQEDASEDSAGTPELGAQDSPTQSLNLNQSLSSEGNPVKQELIRTSAVEGELSEISDSDDDILNKTDKVRPKNELPTETEQEMDTNADEVKSEALHIVAGHPIKGEEGDEVLDFEEISDGELEEDARHKGIGDALGVDWQGLIAETRQQASDAQAAQQGVDRGTSAKQRWQPYRVLLDLGISFGMAGEGYARCVMEEARQQLLQEKEQGQQRELDGDEEPPAKIPSPLLDYREFLASQQQLEPLACVQMGLRSAAVERQRLVGNVCGPGSRALSARQDLRLRRQLCGLPARECEFPRSVPIVGEGLRNLAMQMFQRRLLDVK
B3: Hakai (mouse) (protein, UniProt Q9JIY2 1-491)
chain: MDHTDNELQGTNSSGSLGGLDVRRRIPIKLISKQASKVKPAPRTQRTVSRMPAKAPQGDEEGFDYNEEQRYDCKGGELFGNQRRFPGHLFWDFKINILGEKDDTPVHFCDKCGLPIKVYGRMIPCKHVFCYDCAILHEKKGDKMCPGCSDPVQRIEQCTRGSLFMCSIVQGCKRTYLSQRDLQAHINHRHMRAGKPVTRASLENVHPPIAPPPTDIPDRFIMPPDKHHMSHIPPKQHIMMPPPPLQHVPHEHYNQPHEDIRAPPAELSMAPPPPRSVSQETFRISTRKHSNLITVPIQDDSSSGAREPPPPAPAPAHHHPEYQGQPVVSHPHHIMPPQQHYAPPPPPPPPISHPMPHPPQAAGTPHLVYSQAPPPPMTSAPPPITPPPGHIIAQMPPYMNHPPPGPPPPQHGGPPVTAPPPHHYNPNSLPQFTEDQGTLSPPFTQPGGMSPGIWPAPRGPPPPPRMQGPPSQTPLPGPHHPDQTRYRPYYQ
B4: Rbm15, mouse, endogenous untagged (protein, UniProt Q0VBL3 1-962)
chain: MRSAGREPLPRRSPRWRRASPLCETSAGWRVSQLRRDDLRRPSTMKGKERSPVKPKRSRGGEDSSSRGERSKKLGGSGGSNGSSSGKTDSGGSRRSLHLDKSSSRGGSREYETGGGSSSSRLHSYSSPSTKNSSGGGESRSSSRGGGGESRSSGAASSAPGGGDGVEYKTLKISELGSQLSDEAVEDGLFHEFKRFGDVSVKISHLSGSGSGDERVAFVNFRRPEDARAAKHARGRLVLYDRPLKIEAVYVSRRRSRSPLDKDAYAPSSSVVGTSVGSHRHAPGGGGGQRSLSPGGAALGYRDYRLQQLALGRLPPPPPPPLPRELERERDYPFYDRVRPAYSLEPRVGAGAGAAPFREVDEISPEDDQRANRTLFLGNLDITVTENDLRRAFDRFGVITEVDIKRPSRGQTSTYGFLKFENLDMSHRAKLAMSGKIIIRNPIKIGYGKATPTTRLWVGGLGPWVPLAALAREFDRFGTIRTIDYRKGDSWAYIQYESLDAAHAAWTHMRGFPLGGPDRRLRVDFADTEHRYQQQYLQPLPLTHYELVTDTFGHRAPDPLRSARDRTPPLLYRDRDRDLYTDSDWVPPPPPVRERSARAATSAVTAYEPLDSLDRRRDGWSLDRDRGDRDLPSSRDQPRKRRLPEESGGRHLDRSPESERPRKQRHCTPSPDRSPELSSNRDRYNSDNDRSSRLLLLERSSPVRDRRGSLEKSQSDKRDRKNSASAERDRKHRTAAPTEGKNPLKKEDRSDGNAPSASTSSSKQKPPSQKQDGGTAPVAASSPKLCLAWQGMLLLKNSNFPSNMHLLQGDLQVASSLLVEGSTGGKVAQLKITQRLRLDQPKLDEVTRRIKVAGPNGYAILLAVPGSSDSRSSSSSATSDTAASTQRPLRNLVSYLKQKQAAGVISLPVGGNKDKENTGVLHAFPPCEFSQQFLDSPAKALAKSEEDYLVMIIVRAKLVNSG

Tests used:
[1] = target: T1, Rbm15, endogenously Flag-Avi-tagged (mouse (endogenous in mESCs)); assay: affinity purification with mass spectrometry; TAP-LC-MS/MS: endogenous Flag-Avi-Rbm15 from wild-type mESC lysate on Flag M2 beads, 3xFlag elution, then streptavidin beads; 350 mM NaCl; parental cells as background control
[2] = target: Mettl3 (methyltransferase-like 3), endogenously Flag-Avi-tagged, mouse (mouse (endogenous in mESCs)) (UniProt Q8C3P7); assay: affinity purification with mass spectrometry; TAP-LC-MS: endogenous Flag-Avi-Mettl3 from mESC lysate, Flag then streptavidin beads; 500 mM NaCl
[3] = target: Mettl3 (methyltransferase-like 3), endogenously Flag-Avi-tagged, mouse (mouse (endogenous in mESCs)) (UniProt Q8C3P7); assay: affinity purification with mass spectrometry; TAP-LC-MS: endogenous Flag-Avi-Mettl3 from mESC lysate, Flag then streptavidin beads; NaCl up to 350 mM
[4] = target: T2, Myc-tagged Nito (Spenito) (D. melanogaster); assay: affinity purification with mass spectrometry; SILAC: Myc-Nito or Myc alone transfected in heavy or light S2R+ cells (forward and reverse), anti-Myc immunoprecipitation, threshold 1.5-fold enrichment

Molecule	binding [1]	binding [2]	binding [3]	binding [4]
Virma (Vir-like m6A methyltransferase-associated) (from UniProt A2AIV2 1-1811)	binds			
Zc3h13 (zinc finger CCCH domain-containing protein 13), mouse (from UniProt E9Q784 1-1729)	binds	no binding (only 500 mM NaCl)	binds weakly	
Virilizer (Vir), endogenous in S2R+ cells (from UniProt Q9W1R5 1-1854)				binds
B1				binds
B2				binds
B3	binds	no binding (only 500 mM NaCl)	binds weakly	
B4		no binding (only 500 mM NaCl)	binds weakly	

Results are given in words; binding and its absence hold for the method and conditions named. Binding seen in cells or lysates may run through a third protein. A yes stands for co-enrichment or nearness to the bait. Other partners may have been found. For part of these data: A no says only that the protein was not detected with the bait. Tags and fused reporters may be left off the sequences shown.
